Test results taken from publication PMC9729194.
No constants are given. Whether binding was seen depends on the method and setting. In cells and extracts the contact can be indirect. Some results given as binding are weak or reduced against the parent protein; the word gives no strength.

Sequences of proteins named here, by UniProt entry; tags and fusion partners are left off.
UniProt Q92754: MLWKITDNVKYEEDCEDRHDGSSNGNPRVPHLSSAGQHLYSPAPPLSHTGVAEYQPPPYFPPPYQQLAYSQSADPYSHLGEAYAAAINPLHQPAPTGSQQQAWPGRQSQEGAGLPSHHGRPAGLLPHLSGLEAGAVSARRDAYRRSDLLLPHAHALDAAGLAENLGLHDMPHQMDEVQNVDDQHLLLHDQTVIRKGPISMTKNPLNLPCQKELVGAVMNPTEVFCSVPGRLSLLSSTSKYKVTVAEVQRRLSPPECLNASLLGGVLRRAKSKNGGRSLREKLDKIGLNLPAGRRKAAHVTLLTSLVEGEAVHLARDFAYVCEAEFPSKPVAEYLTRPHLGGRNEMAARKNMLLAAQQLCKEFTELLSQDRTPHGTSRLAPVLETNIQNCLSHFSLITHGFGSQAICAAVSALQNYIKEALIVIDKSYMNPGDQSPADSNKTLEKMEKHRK

Molecular target: T1, Hematological and neurological expressed 1 like (HN1L) (human) (UniProt Q9H910)
T1 sequence: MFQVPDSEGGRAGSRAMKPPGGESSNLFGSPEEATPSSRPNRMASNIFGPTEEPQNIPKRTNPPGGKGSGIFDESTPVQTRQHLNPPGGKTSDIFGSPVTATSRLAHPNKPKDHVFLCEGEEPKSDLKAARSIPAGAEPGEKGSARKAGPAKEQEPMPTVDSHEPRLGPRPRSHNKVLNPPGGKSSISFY
Assay: co-IP; KYSE30-HN1L cells lysed in NP-40 lysis buffer on ice; IP with anti-HN1L antibody (ab200571) on Dynabeads Protein A; HN1L and AP-2γ detected by western blotting

binding: binds
Substance: transcription factor AP-2γ (from UniProt Q92754 1-450)
